Literature values in US12180145B2, “Fused cyclooctyne compounds and their use in metal-free click reactions” (Synaffix B.V., priority 2010, dated 2024).
Some entries share one result that the patent states for a list of compounds. For at least one compound, name, drawing or mass did not settle the structure.

Details: times higher than with azides; cited from earlier work

OC1Cc2ccccc2C#Cc2ccccc21 (stereo not shown) [DIBO]
reaction rate constants with nitrones relative to azides: up to 300 times
